For some of these results: At least one compound was matched to its structure with a doubt left. Some of these results come from one statement about several compounds together. Some compounds share one range, which may span the group rather than tell each member.
What was measured:
[1] = test system: liver of rabbits fed 1% cholesterol diet; test: Fatty degeneration in the liver of the rabbits; assay type: in vivo, rabbit; conditions: 1% cholesterol plus 0.15% bioflavonoid or 1.5 mg/kg Simvastatin
Text: According to the report of Fogt F. and Nanji A., (Toxicology and Applied Pharmacology; 136, pp 87-93, 1996) and Keegan A. et al., (Journal of Hepatology; 23, pp 591-600, 1995). […]

[2] = test system: thoracic aorta of rabbits fed 1% cholesterol diet; test: Analysis for fatty streak deposition in thoracic aorta; assay type: in vivo, rabbit; conditions: microscopic pictures, 1% cholesterol plus 0.15% bioflavonoid or 1.5 mg/kg simvastatin, control: thick layer
Procedure: The chest wall of each rabbit (sacrificed in Step B) was incised, a portion of thoracic aorta from 1 cm site above aortic valve downward for 5 cm was cut out. The surrounding fatty tissues were removed, the aorta was incised longitudinally and pinned to a dish. The moist aorta was then photographed, and staining of fatty streak was carried out with the method described by Esper, E. et al. (Journal of Lab. Clinical Medicine; 121, pp 103-110(1993)) as follows.
The opened portion of aortas were pinned to a wooden tongue depressor, washed three times for 2 minutes with anhydrous propylene glycol and stained for 30 minutes with saturated solution of Oil Red O dissolved in propylene glycol. Then the aortas were washed twice for 3 minutes with 85% propylene glycol, to remove remaining staining solution by washing with normal saline solution. The aortas were photographed, and the photographs were traced with an image analyzer (LEICA, Q-600, Germany), and the area of stained portion were fatty streak region, its proportion in percentile (%) to the total aorta area were calculated.

[3] = target: T1, 3-HMG-CoA reductase (Oryctolagus cuniculus, UniProt Q29512); test: Activity of 3-HMG-CoA reductase in liver microsomes (modified Hulcher's method); assay type: biochemical, rabbit; conditions: liver microsomes of rabbits fed 8 weeks 1% cholesterol plus 0.15% bioflavonoid; control group 0%
T1 construct: ultracentrifuged at 100,000 times gram for 60 minutes and again for another 60 minutes to obtain microsomal precipitates; from tissue; host or cells: rabbit liver microsomes
T1 sequence (Q29512 1-888): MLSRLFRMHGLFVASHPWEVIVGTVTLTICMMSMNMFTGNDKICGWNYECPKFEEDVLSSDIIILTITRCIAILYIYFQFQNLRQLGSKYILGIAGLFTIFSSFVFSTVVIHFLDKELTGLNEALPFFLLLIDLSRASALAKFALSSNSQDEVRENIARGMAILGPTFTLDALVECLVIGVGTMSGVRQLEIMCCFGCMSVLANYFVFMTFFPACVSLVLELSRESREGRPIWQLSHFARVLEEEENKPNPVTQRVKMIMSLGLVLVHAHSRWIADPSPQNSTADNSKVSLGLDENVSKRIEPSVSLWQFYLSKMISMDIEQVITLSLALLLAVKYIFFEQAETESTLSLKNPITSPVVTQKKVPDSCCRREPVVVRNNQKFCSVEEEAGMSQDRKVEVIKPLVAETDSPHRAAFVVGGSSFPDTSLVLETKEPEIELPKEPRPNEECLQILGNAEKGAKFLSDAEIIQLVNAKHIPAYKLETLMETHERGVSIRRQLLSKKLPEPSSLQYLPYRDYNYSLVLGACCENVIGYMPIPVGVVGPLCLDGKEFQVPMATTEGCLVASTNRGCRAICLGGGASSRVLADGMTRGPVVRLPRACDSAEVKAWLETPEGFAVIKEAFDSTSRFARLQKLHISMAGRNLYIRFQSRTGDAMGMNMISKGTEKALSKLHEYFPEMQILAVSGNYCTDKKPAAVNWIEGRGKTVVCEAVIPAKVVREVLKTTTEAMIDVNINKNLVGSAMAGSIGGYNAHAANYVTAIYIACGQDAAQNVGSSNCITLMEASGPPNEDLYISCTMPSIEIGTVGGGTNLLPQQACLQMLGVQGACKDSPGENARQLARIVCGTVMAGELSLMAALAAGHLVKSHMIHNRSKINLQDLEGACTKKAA

Row | SMILES | microscopic features of the liver (FIGS. 2B-2F) [1] | macrophage lipid cell complex in the aorta walls (FIGS. IB-IF) [2] | Inhibition on the activity of 3-HMG-CoA reductase in percentage (%) [3]
1 | CCC(C)(C)C(=O)O[C@H]1C[C@@H](C)C=C2C=C[C@H](C)[C@H](CC[C@@H]3C[C@@H](O)CC(=O)O3)[C@H]21 [Simvastatin, reference compound] | many fat containing cells around the central vein | no or a very thin layer of macrophage lipid cell complex | –
2 | C[C@@H]1O[C@@H](OC[C@H]2O[C@@H](Oc3c(-c4ccc(O)c(O)c4)oc4cc(O)cc(O)c4c3=O)[C@H](O)[C@@H](O)[C@@H]2O)[C@H](O)[C@H](O)[C@H]1O [Rutin, quercetin-3-rutinoside] | almost all of the liver cells are normal without containing fat particles | no or a very thin layer of macrophage lipid cell complex | 45-30%
3 | O=c1c(O)c(-c2ccc(O)c(O)c2)oc2cc(O)cc(O)c12 [Quercetin, 3,5,7,3′,4′ penta-hydroxy flavone] | – | – | 45-30%
4 | O=c1cc(-c2ccc(O)cc2)oc2c(C3O[C@H](CO)[C@@H](O)[C@H](O)[C@H]3O)c(O)cc(O)c12 (stereo partly drawn) [Vitexin, 8-D-glucosyl-4′,5,7 trihydroxy-flavone] | – | – | 45-30%

Source: US20060040911A1, “Method for preventing and/or treating the cardiovascular and hepatic diseases induced by hyperlipidemia which comprises administered an effective amount of bioflavonoids extract derived from fructus crataegus (lipid metabolism and fructus crataegus)” (priority 2003, published 2006)
